Source: PubChem BioAssay AID624297 (National Center for Advancing Translational Sciences (NCATS), 2012)
Among all 340,000 compounds or so, about 6,200 (1.8%) were called active. The shares of active, inactive and inconclusive entries below differ from those in the screen. Calls come from the whole dose curve; as a rule, active = well fitted activation curve with a large enough effect; inconclusive = small, poorly fitted or top-dose-only effect; inactive = no such curve, though single readings can be large or run the other way. A potency beside an inconclusive call is a rough fit, not a confirmed value.
Potency is the fitted concentration of half-maximal effect.

Assay: A quantitative high throughput screen for small molecules that induce DNA re-replication in SW480 colon adenocarcinoma cells. For re-replication activation: % of control where 0% means no effect. Note: nearly all actives have a fitted effect of over 55% in size.
Settings: Hoechst DNA content imaging, 48 h; re-replication activation: at 46.1 µM (top of the series) unless noted
Summary of the method: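 Treated cells incubate 48 hr (37 C, 5% CO2), are stained 40 min with Hoechst, and nuclear fluorescence is enumerated; a rise in nuclei with high DNA signal marks re-replication.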
With `CCOC(=O)c1c(-c2ccccc2)oc2cc(CN(C)C)c(O)c(CN(C)C)c12` the Potency was inconclusive: 17.8 µM [activator, single point]. For `CCOC(=O)c1oc2ccccc2c1CN1CCCCC1`, the Potency was “inactive”. With `COc1cc(C(=S)N2CCCCC2)ccc1OCC(=O)Nc1ccccc1Cl` the Potency was inconclusive: 9.2 µM [activator, partial curve, poor fit]. With `Nc1nc2c(s1)CCc1ccccc1-2` the Potency was “inactive”. In the case of `Cc1cc(C)n2c(=O)c3ccc(Cl)cc3nc2c1C#N`, the Potency is reported as inconclusive: 13 µM [activator, partial curve]. In the case of `CCOC(=O)c1c(C)nc2sc(C(=O)Nc3ccc(C(C)=O)cc3)c(N)c2c1-c1ccc(OC)cc1`, the Potency is reported as active: 2.31 µM. With `CSc1nc(-c2ccccc2)nc(C(Cl)Cl)n1` the Potency was inconclusive: 18.4 µM [activator, single point]. For `CC(NC(=O)C12CC3CC(CC(O)(C3)C1)C2)c1ccc(Cl)cc1Cl` (stereo not given), the Potency was “inactive”. In the case of `Cc1ccccc1-c1nc2c3ccccc3nc(=S)n2[nH]1`, the Potency is reported as “inactive”. In the case of `Cc1cc(-c2ccccc2)nc2cc(C(=O)N(Cc3ccccc3)Cc3ccccc3)nn12`, the Potency is reported as inconclusive: 23.1 µM [activator, single point]. In the case of `COC(=O)C1=C(C)N(Cc2ccccc2)C(=NCc2cccc(C(F)(F)F)c2)N[C@H]1c1cccc(F)c1`, the Potency is reported as inconclusive: 2.91 µM [activator, partial curve, poor fit]. With `Cn1cc(CN2CC3C[C@@H]4CC2C[C@H](C3)C4)c(-c2ccc3c(c2)OCCO3)n1` the Potency was inconclusive: 20.6 µM [activator, single point]. In the case of `O=C(Nc1ccc([N+](=O)[O-])cc1)c1cc2ccccc2nc1Cl`, the Potency is reported as inconclusive: 29.1 µM [activator, single point]. In the case of `CC(C)OCCCn1c(=S)[nH]c2ccc(N3CCOCC3)cc2c1=O`, the Potency is reported as “inactive”. In the case of `COc1ccc(C(=O)/C=C/C(=O)N(CC(=O)NC2CCCCC2)Cc2cccs2)c(O)c1`, the Potency is reported as inconclusive: 16.4 µM [activator, single point]. With `COC(=O)CSc1nc(-c2cccs2)ccc1C#N` the Potency was inconclusive: 35.5 µM [activator, partial curve, poor fit]. For `CCOC(=O)c1c(C)[nH]c(C2=NNC(=Nc3cccc(Cl)c3)SC2)c1C`, the Potency was active: 20.6 µM. With `CCN(c1ccc(NS(=O)(=O)c2cc(Cl)ccc2Cl)cc1)C(C)C` the Potency was inconclusive: 29.1 µM [activator, single point]. With `Cn1nccc1C(=O)N1CCCC(C(=O)c2cccc3ccccc23)C1` (stereo not given) the Potency was inconclusive: 0.13 µM [activator, full curve, poor fit]. For `N=c1c2c(ncn1Cc1ccco1)Oc1cc(O)ccc1C2c1ccccc1` (stereo not given), the Potency was inconclusive: 20.6 µM [activator, single point]. In the case of `O=C(Nc1nc2ccc(S(=O)(=O)N3CCCCC3)cc2s1)c1cccnc1`, the Potency is reported as inconclusive: 18.4 µM [activator, partial curve, poor fit]. In the case of `Cc1c(C(=O)Nc2ccc3c(c2)CCC3)cccc1[N+](=O)[O-]`, the Potency is reported as inconclusive: 23.1 µM [activator, partial curve, poor fit]. In the case of `COc1ccc(S(=O)(=O)Nc2cccc3ccc(O)cc23)cc1`, the Potency is reported as inconclusive: 18.4 µM [activator, partial curve, poor fit]. With `O=C(CSc1nnc(-c2cccnc2)n1-c1ccc(SC(F)F)cc1)N1CCCc2ccccc21` the Potency was inconclusive: 0.517 µM [activator, full curve, poor fit]. With `Cc1ccc(-c2csc(NCCc3nc4cc(Cl)c(Cl)cc4n3CCCO)n2)cc1` the Potency was “inactive”. With `Cc1ccc(S(=O)(=O)N(C)C)cc1NC(=O)C(C)N(C)CCOc1ccc(Cl)cc1` (stereo not given) the Potency was inconclusive: 35.5 µM [activator, single point]. For `CCCC[C@@H]1C[C@H]1[C@@H](NC(=O)c1cccs1)c1ccc(Cl)cc1`, the Potency was inconclusive: 18.4 µM [activator, single point]. In the case of `CC1Sc2ccc(Cl)cc2-c2nc(N)ncc21` (stereo not given), the Potency is reported as inconclusive: 5.8 µM [activator, full curve, poor fit]. With `O=S(=O)(c1ccc(OCc2ccc(Br)cc2)cc1)N1CCOCC1` the Potency was inconclusive: 29.1 µM [activator, single point]. For `CCC(c1nnnn1C(C)(C)C)N1CCN(c2cc(Cl)ccc2C)CC1` (stereo not given), the Potency was inconclusive: 18.4 µM [activator, single point]. With `Cc1ccc2c(c1)c1ccc3c(c1n2C)C(=O)C=CC3=O` the Potency was inconclusive: 6.51 µM [activator, single point]. For `Cc1cc(C)n2nc(C)c(-c3ccc(Cl)cc3)c2n1`, the Potency was “inactive”. For `CC(C)(Oc1ccc(Cl)cc1)C(=O)N(Cc1ccccc1)c1ccccn1`, the Potency was inconclusive: 20.6 µM [activator, partial curve, poor fit]. In the case of `CC(C)(C)N=C1NN=C(c2ccc(S(=O)(=O)N3CCCCC3)cc2)CS1`, the Potency is reported as inconclusive: 18.4 µM [activator, single point]. For `CNC(=O)c1nc(C)c(C2(C)CC(c3ccccc3)=NO2)s1` (stereo not given), the Potency was “inactive”. For `C[C@H]1C=CC(=O)O[C@H]1c1ccccc1`, the re-replication activation was inactive: -7.01% [at 9.22 µM]. With `CCOC(=O)c1c(C)nc2sc(C(=O)Nc3ccc(OC)cc3)c(N)c2c1-c1ccc(OC)cc1` the Potency was inconclusive: 9.2 µM [activator, single point]. With `COc1cccc(NS(=O)(=O)c2ccc3c(c2)CC(=O)N3)c1` the Potency was inconclusive: 3.26 µM [activator, full curve, poor fit]. In the case of `CNc1ccc(N=Nc2cccc3ncccc23)cc1`, the Potency is reported as “inactive”. For `CC(=O)c1c(C)[nH]c(C(=O)OCC(=O)C(C)(C)C)c1C`, the Potency was “inactive”. For `Cc1ccc(-c2noc(CN(C(=O)C(c3ccccc3)c3ccccc3)C(C)C)n2)cc1`, the Potency was inconclusive: 14.6 µM [activator, single point]. In the case of `N=C(N)SCc1ccccc1Cl`, the Potency is reported as inconclusive: 16.4 µM [activator, partial curve, poor fit]. In the case of `CCN(CC)CC(=O)Nc1cccc(S(=O)(=O)N2CCCC2)c1`, the Potency is reported as inconclusive: 29.1 µM [activator, single point]. In the case of `CCOc1ccc(-c2nnc(SCc3nnc(-c4ccccc4)o3)n2-c2ccccc2F)cc1`, the Potency is reported as inconclusive: 32.6 µM [activator, partial curve, poor fit]. With `O=C(N/N=C/c1cccs1)c1cc(-c2ccc3ccccc3c2)n[nH]1` the Potency was inconclusive: 18.4 µM [activator, single point]. For `O=c1c2ccccc2c(-c2cccc(C(F)(F)F)c2)nn1-c1ccccc1`, the Potency was “inactive”. With `CC(C)(C)NC(=O)NC(=O)CN1CCN(S(=O)(=O)c2ccc3c(c2)OCCO3)CC1` the Potency was inconclusive: 4.11 µM [activator, single point]. In the case of `O=C(Cc1ccc(F)cc1)NCCS(=O)(=O)N1CCN(c2cccc(Cl)c2)CC1`, the Potency is reported as inconclusive: 29.1 µM [activator, single point]. With `O=C(O)c1ccc(NC(=S)NC(=O)c2cccc(COc3ccccc3)c2)cc1` the Potency was “inactive”. For `COc1ccccc1N=CC=C1OC(C)(C)C(C)(C)O1`, the Potency was inconclusive: 9.2 µM [activator, partial curve, poor fit]. With `Cc1ccsc1/C=N/NC(=O)Cc1cccn1C` the Potency was inconclusive: 29.1 µM [activator, single point]. With `CC[C@@H](CC1CCCCC1)C(=O)N(Cc1ccccc1)c1ccccc1` the Potency was “inactive”. For `Cc1ccc2nc3c(cc(C(=O)NC4CCCC4)c(=N)n3C3CCCCC3)c(=O)n2c1`, the Potency was inconclusive: 2.91 µM [activator, full curve, poor fit]. In the case of `CCc1ccc(OCC(O)CN2CCN(c3ccccn3)CC2)cc1` (stereo not given), the Potency is reported as inconclusive: 6.51 µM [activator, partial curve, poor fit]. For `Cc1ccccc1Cn1cc(NC(=O)c2nc3ncccn3n2)cn1`, the Potency was inconclusive: 18.4 µM [activator, partial curve, poor fit]. For `O=C(CN1CCN(Cc2ccccc2Cl)C1=O)N1CCCCCC1`, the Potency was inconclusive: 6.51 µM [activator, single point]. In the case of `Cc1ccc(NC(=O)CSc2nnc(COc3ccccc3F)n2N)cc1S(=O)(=O)N1CCOCC1`, the Potency is reported as inconclusive: 9.2 µM [activator, single point]. For `CC(Oc1ccc2c3c(c(=O)oc2c1)CCCC3)C(=O)NCC1CCC(C(=O)O)CC1` (stereo not given), the Potency was inconclusive: 23.1 µM [activator, single point]. For `CC1=C(C(=O)OCC2CCCO2)C(c2ccccc2OC(C)C)C2=C(CC(c3ccco3)CC2=O)N1` (stereo not given), the Potency was inconclusive: 29.1 µM [activator, partial curve, poor fit]. For `CNC(=S)N1N=C(c2ccc(C)cc2)CC1c1cc(OC)ccc1OC` (stereo not given), the Potency was inconclusive: 3.66 µM [activator, partial curve, poor fit]. In the case of `O=C(NCCCN1CCN(c2ccc(F)cc2)CC1)NC12CC3CC(CC(C3)C1)C2`, the Potency is reported as inconclusive: 35.5 µM [activator, partial curve, poor fit]. For `Cc1nc(CNS(=O)(=O)c2cccs2)cs1`, the Potency was inconclusive: 1.84 µM [activator, full curve, poor fit]. In the case of `Cc1cc2nnc(SCC(=O)NC3CCCCC3)n2c(N)n1`, the Potency is reported as “inactive”. For `Cc1c(NC(=O)c2ccc(NS(=O)(=O)c3ccccc3)cc2)c(=O)n(-c2ccccc2)n1C`, the Potency was inconclusive: 32.6 µM [activator, partial curve, poor fit]. With `O=C(NC(=S)Nc1cccc(Cl)c1)c1cncc(Br)c1` the Potency was inconclusive: 18.4 µM [activator, single point].
